Test results taken from patent US12162911B2, “Pulmonary administration of pyocins for treating bacterial respiratory infections” (priority 2014, dated 2024).
Some entries share one result that the patent states for a list of compounds.

B1: Pyocin S2: S-type pyocin, SEQ ID NO: 1; targeting domain binds FpvAI, effector has DNase activity (protein, listed as Pseudomonas aeruginosa)
chain: MAVNDYEPGSMVITHVQGGGRDIIQYIPARSSYGTPPFVPPGPSPYVGTGMQEYRKLRSTLDKSHSELKKNLKNETLKEVDELKSEAGLPGKAVSANDIRDEKSIVDALMDAKAKSLKAIEDRPANLYTASDFPQKSESMYQSQLLASRKFYGEFLDRHMSELAKAYSADIYKAQIAILKQTSQELENKARSLEAEAQRAAAEVEADYKARKANVEKKVQSELDQAGNALPQLTNPTPEQWLERATQLVTQAIANKKKLQTANNALIAKAPNALEKQKATYNADLLVDEIASLQARLDKLNAETARRKEIARQAAIRAANTYAMPANGSVVATAAGRGLIQVAQGAASLAQAISDAIAVLGRVLASAPSVMAVGFASLTYSSRTAEQWQDQTPDSVRYALGMDAAKLGLPPSVNLNAVAKASGTVDLPMRLTNEARGNTTTLSVVSTDGVSVPKAVPVRMAAYNATTGLYEVTVPSTTAEAPPLILTWTPASPPGNQNPSSTTPVVPKPVPVYEGATLTPVKATPETYPGVITLPEDLIIGFPADSGIKPIYVMFRDPRDVPGAATGKGQPVSGNWLGAASQGEGAPIPSQIADKLRGKTFKNWRDFREQFWIAVANDPELSKQFNPGSLAVMRDGGAPYVRESEQAGGRIKIEIHHKVRIADGGGVYNMGNLVAVTPKRHIEIHKGGK
B2: Pyocin AP41: S-type pyocin, SEQ ID NO: 18; effector has DNase activity (protein, listed as Pseudomonas aeruginosa)
chain: MSDVFDLGSMTTVATATGQYSFYTPPPPTPIPYLTYIARPGINKFDLPEGAKIKDLIKRYQYIGSQIPAAIMIRGVQEEIKKSTNTALANVGAIVDGELAYLASQKKEKLNPAEATPLQMASAEKAAAVELLASKQKELADARTIANAFFGYDPLTVNYVNVMNEIYGRREDKDFSFDNWSKSYSAAQKIRLIEAKISVLNSRSSALDGKVAELTRLQRLEDAQHAAEAARQTEAERLAQEQRQAEARRQAEEARRQAEAQRQAELQRLAEAEAKRVAEAEKKRQDEINARLQAIVVSESEAKRIEEIYKRLEEQDKISNPTVTTPPAVDAGSRVDDALAHTGTRVTSGGETGATGGSGRDVDTGTGQGGITARPVDVGSVSIPDRRDPKIPDQPRRDLGSLVPTFPDFPTFPSFPGVGVPAAAKPLIPAGGGAASVSRTLKTAVDLLSVARKTPGAMLGQVAAVVATMAVSSFWPKLNNGERQASFAIPVAELSPPLAVDWQAIAAAKGTVDLPYRLKTLNVDGSIQIIAVPTEPGSAAVPVRALTLDSASGTYKYTTTGPGGGTILVTPDTPPGQIDPSSSTPAVPRGPLIMPGTLLIPKEPQIESYPELDQREFNDGIYVYPEDSGIPPLYIVYRDPRDEPGVATGNGQPVTGNWLAGASQGDGVPIPSQIADQLRGKEFKSWRDFREQFWMAVSKDPSALENLSPSNRYFVSQGLAPYAVPEEHLGSKEKFEIHHVVPLESGGALYNIDNLVIVTPKRHSEIHKELKLKRKEK
B3: Pyocin L1: lectin-like pyocin, SEQ ID NO: 24; receptor believed to be common polysaccharide antigen of LPS (protein, listed as Pseudomonas aeruginosa)
chain: MASSLAPRQVIRDGQFITSPNGKYKLVMQADGNLVLYEDGTKPIWNTTPVGPGAKAVMEFNLNLYNKAGQVAWSSNVYTAYLFEEFKDEAYLNLQDDGDFGIFSDEAKWGSIVLSRPEVGVKNKIIPTGTVMVPGTEYINGNYRLAFQGDGNLVIYQINPQVVIWATYTMGADRAVVQEDGNFVIYKGTTALWHTHTATGMPAYLKFTNTGKLFLSQPTLLWTLKRGSLSKPPKVIPGQHGPLDTTPIWSWPHDYP

Tested on: P. aeruginosa P8
Assay: Mouse model of acute lung infection, P. aeruginosa P8
Assay type: in vivo, Pseudomonas aeruginosa
Conditions: for minimum effective concentration: against P. aeruginosa P8, survival to 24 h
Procedure: Study design. […] For all experiments 6 week-old, female, murine pathogen free C57/BL6 mice weighing 15-21 g were used (Charles Rivers Laboratories, UK). All mice received food and water ad libitum and were housed in groups during the experiments. Power calculations were used to predetermine sample size (n=6, for all treatment experiments). Mice were culled when required as determined by a scoring system or culled at the pre-determined 24 h time point. All mice, including outliers were included in the statistical analysis. Experiments were either carried out once only or repeated once (defined for each experiment).
Model of acute lung infection. Female C57/BL6 mice were inoculated intranasally with 25 μl of bacterial culture containing approximately 10^7 CFU of the selected P. aeruginosa strain^36. Antibiotic treatments were administered at either 6 h pre-infection or 1 h post-infection and were administered only once. Pyocins or tobramycin dissolved in PBS were administered via intranasal administration as described above. Two different end-points were used in these experiments. In order to determine a reduction in the bacterial load of the lungs compared to the untreated controls, all mice in the experiment were culled by carbon dioxide asphyxiation at the same time; 4-6 h post infection. To determine if mice could survive infection after pyocin or tobramycin treatment, mice were monitored closely, culled by carbon dioxide asphyxiation when required as determined by a scoring system or culled at the pre-determined 24 h time point. Uninfected mice, treated with pyocins, were used as controls in the first series of experiments in order to ensure no adverse effects from pyocin treatment. These controls were stopped in later experiments in order to reduce the number of animals used, once it was clear that the pyocins were not harmful. For CFU determination, lungs were removed aseptically and kept on ice in 750 μl of PBS until homogenised. Serial 10-fold dilutions of the homogenised lung were plated on Pseudomonas selective agar (20 g peptone, 1.5 g K2HPO4, 1.5 g MgSO4·7H2O, 10 ml glycerol, 15 g agar, 0.025 g Irgasan per litre) and incubated at 37° C. for 24 h and then room temperature for 24 h before the colonies were counted.

[1] = 3 mg ml^−1 1 h post-infection, 24 h post-infection (FIG. 1d)
[2] = 3 mg ml^−1 intranasal 6 h pre-infection, 24 h post-infection (FIG. 1b)

| Molecule | reduction of bacterial counts in lung [1] [log units] | reduction of bacterial counts in lung [2] | minimum effective concentration [µg/mL] |
| --- | --- | --- | --- |
| B1 | > 4 | more than 10,000 fold | ≤ 30 |
| B2 | > 4 | more than 10,000 fold | ≤ 30 |
| B3 | > 4 | more than 10,000 fold |  |
